{"source": "PubChem BioAssay AID504791 (Drosophila RNAi Screening Center, 2011)", "assay": "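Factors in Argonaute-based small RNA production and activity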 (primary screen)", "cells": "Drosophila S2-derived reporter cells", "reagents": "long dsRNA against Drosophila genes, about 150-250 ng dsRNA per well (siRNA assay); about 80-120 ng (miRNA assay)", "timing": "about 5 days (siRNA assay); about 4 days (miRNA assay)", "challenge": "copper sulfate induction of reporters: 25 µM (siRNA assay); 200 mM stated (miRNA assay), 1-2 days before reading", "measured": "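Dual luciferase assay: Renilla to firefly signal ratio in each well, scaled to the mean ratio of its plate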", "units": "stable assay Renilla, run 1 in luminescence; stable assay firefly, run 1 in luminescence", "rule for the call": "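a well was a first-pass pick when its plate-scaled ratio rose above 1.5 (siRNA assay) or 1.6 (miRNA assay), or dropped below 0.6; a gene counted only if two separate dsRNAs agreed on retest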", "note": "The deposit covers about 23,000 reagents; shown is a random part of those that have a named target and a result. Of all reagents, 199 (0.86%) were called active. 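Plate-scaled ratios behind the calls are not deposited; printed light signals are raw; many rows marked increased or decreased are still called inactive.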 Names joined by + are all predicted targets of the reagent. Not given: the direction of the score."}
{"target gene": "CG18128 (GeneID 37756)", "DRSC id": "DRSC04304", "stable assay Renilla, run 1": 6400, "stable assay firefly, run 1": 3.48e5, "outcome": "inactive"}
{"target gene": "CG7872 (GeneID 32493)", "DRSC id": "DRSC20062", "stable assay Renilla, run 1": 8750, "stable assay firefly, run 1": 5.53e5, "outcome": "inactive"}
{"target gene": "vnd (GeneID 31003)", "DRSC id": "DRSC17360", "stable assay Renilla, run 1": 8974, "stable assay firefly, run 1": 4.67e5, "outcome": "inactive"}
{"target gene": "vnd (GeneID 31003)", "DRSC id": "DRSC18849", "stable assay Renilla, run 1": 4267, "stable assay firefly, run 1": 3.07e5, "outcome": "inactive"}
{"target gene": "vnd (GeneID 31003)", "DRSC id": "DRSC22487", "stable assay Renilla, run 1": 3375, "stable assay firefly, run 1": 3.46e5, "outcome": "inactive"}
{"target gene": "CG14957 (GeneID 38386)", "DRSC id": "DRSC08416", "stable assay Renilla, run 1": 7550, "stable assay firefly, run 1": 6.01e5, "outcome": "inactive"}
{"target gene": "Blos4 (GeneID 39219)", "DRSC id": "DRSC10151", "stable assay Renilla, run 1": 6539, "stable assay firefly, run 1": 4.00e5, "outcome": "inactive"}
{"target gene": "Dgp-1 (GeneID 37080)", "DRSC id": "DRSC07400", "stable assay Renilla, run 1": 5644, "stable assay firefly, run 1": 3.21e5, "outcome": "inactive"}
{"target gene": "Taf12 (GeneID 41406)", "DRSC id": "DRSC16879", "stable assay Renilla, run 1": 7286, "stable assay firefly, run 1": 5.58e5, "outcome": "inactive"}
{"target gene": "Taf12 (GeneID 41406)", "DRSC id": "DRSC28181", "miRNA reporter change": "reporter ratio lowered past the hit cutoff", "outcome": "active"}
{"target gene": "CG32832 (GeneID 318237)", "DRSC id": "DRSC01562", "stable assay Renilla, run 1": 4787, "stable assay firefly, run 1": 2.99e5, "outcome": "inactive"}
{"target gene": "Ent2 (GeneID 33921)", "DRSC id": "DRSC02124", "stable assay Renilla, run 1": 24760, "stable assay firefly, run 1": 5.53e5, "outcome": "inactive"}
{"target gene": "Atpalpha (GeneID 48971)", "DRSC id": "DRSC14119", "stable assay Renilla, run 1": 9033, "stable assay firefly, run 1": 3.12e5, "outcome": "inactive"}
{"target gene": "CG30398 (GeneID 246591)", "DRSC id": "DRSC03891", "stable assay Renilla, run 1": 5371, "stable assay firefly, run 1": 4.49e5, "outcome": "inactive"}
{"target gene": "wa-cup (GeneID 40892)", "DRSC id": "DRSC12511", "stable assay Renilla, run 1": 7646, "stable assay firefly, run 1": 6.55e5, "outcome": "inactive"}
{"target gene": "CG4119 (GeneID 31481)", "DRSC id": "DRSC17741", "stable assay Renilla, run 1": 12048, "stable assay firefly, run 1": 5.64e5, "outcome": "inactive"}
{"target gene": "CG7137 (GeneID 37204)", "DRSC id": "DRSC07017", "stable assay Renilla, run 1": 9058, "stable assay firefly, run 1": 3.68e5, "outcome": "inactive"}
{"target gene": "CG3225 (GeneID 33680)", "DRSC id": "DRSC00578", "stable assay Renilla, run 1": 11386, "stable assay firefly, run 1": 1.83e5, "outcome": "inactive"}
{"target gene": "CG30411 (GeneID 246600)", "DRSC id": "DRSC04004", "stable assay Renilla, run 1": 4911, "stable assay firefly, run 1": 4.22e5, "outcome": "inactive"}
{"target gene": "CG10357 (GeneID 38435)", "DRSC id": "DRSC08155", "stable assay Renilla, run 1": 6283, "stable assay firefly, run 1": 3.09e5, "outcome": "inactive"}
{"target gene": "CG34174 (GeneID 5740699)", "DRSC id": "DRSC00101", "stable assay Renilla, run 1": 3963, "stable assay firefly, run 1": 3.72e5, "outcome": "inactive"}
{"target gene": "Cpr78Ca (GeneID 40352)", "DRSC id": "DRSC11651", "stable assay Renilla, run 1": 6952, "stable assay firefly, run 1": 4.04e5, "outcome": "inactive"}

Ordered by “stable assay firefly, run 1” (highest first): some entries from above.
{"target gene": "wa-cup (GeneID 40892)", "DRSC id": "DRSC12511", "stable assay Renilla, run 1": 7646, "stable assay firefly, run 1": 6.55e5, "outcome": "inactive"}
{"target gene": "CG4119 (GeneID 31481)", "DRSC id": "DRSC17741", "stable assay Renilla, run 1": 12048, "stable assay firefly, run 1": 5.64e5, "outcome": "inactive"}
{"target gene": "CG30398 (GeneID 246591)", "DRSC id": "DRSC03891", "stable assay Renilla, run 1": 5371, "stable assay firefly, run 1": 4.49e5, "outcome": "inactive"}

Next results:
{"target gene": "Rap1 (GeneID 38244)", "DRSC id": "DRSC08686", "stable assay Renilla, run 1": 10326, "stable assay firefly, run 1": 3.63e5, "outcome": "inactive"}
{"target gene": "Cyp6t3 (GeneID 36318)", "DRSC id": "DRSC07388", "stable assay Renilla, run 1": 5983, "stable assay firefly, run 1": 3.57e5, "outcome": "inactive"}
{"target gene": "CG10000 (GeneID 43394)", "DRSC id": "DRSC14170", "stable assay Renilla, run 1": 6291, "stable assay firefly, run 1": 3.68e5, "outcome": "inactive"}
{"target gene": "Gr59e (GeneID 37725)", "DRSC id": "DRSC04276", "stable assay Renilla, run 1": 6595, "stable assay firefly, run 1": 4.96e5, "outcome": "inactive"}
{"target gene": "COX6AL2 + Ir75d", "DRSC id": "DRSC10081", "stable assay Renilla, run 1": 6207, "stable assay firefly, run 1": 3.96e5, "outcome": "inactive"}
{"target gene": "CG12783 (GeneID 42019)", "DRSC id": "DRSC14538", "stable assay Renilla, run 1": 7550, "stable assay firefly, run 1": 4.94e5, "outcome": "inactive"}
{"target gene": "CG13707 (GeneID 38583)", "DRSC id": "DRSC08316", "stable assay Renilla, run 1": 6614, "stable assay firefly, run 1": 5.32e5, "outcome": "inactive"}
{"target gene": "Sec63 (GeneID 38819)", "DRSC id": "DRSC11002", "stable assay Renilla, run 1": 5391, "stable assay firefly, run 1": 4.52e5, "outcome": "inactive"}
{"target gene": "CG33263 (GeneID 2768952)", "DRSC id": "DRSC10108", "stable assay Renilla, run 1": 6826, "stable assay firefly, run 1": 4.02e5, "outcome": "inactive"}
{"target gene": "GlcT (GeneID 37516)", "DRSC id": "DRSC04525", "stable assay Renilla, run 1": 17051, "stable assay firefly, run 1": 5.75e5, "outcome": "inactive"}
{"target gene": "Atg8b (GeneID 42132)", "DRSC id": "DRSC14501", "stable assay Renilla, run 1": 7008, "stable assay firefly, run 1": 4.37e5, "outcome": "inactive"}
{"target gene": "Meltrin (GeneID 3772109)", "DRSC id": "DRSC16274", "stable assay Renilla, run 1": 10228, "stable assay firefly, run 1": 4.40e5, "outcome": "inactive"}
{"target gene": "Meltrin (GeneID 3772109)", "DRSC id": "DRSC21693", "stable assay Renilla, run 1": 9399, "stable assay firefly, run 1": 4.64e5, "outcome": "inactive"}
